Test results published in PMC12357876.
These are yes or no findings as the source states them, for the method shown. Binding seen in cells or lysates may run through a third protein. These calls come from enrichment with a bait or labelling near it, and not all partners need be listed.

Chains of the proteins cited; added tags and fusions are not shown.
UniProt P67809: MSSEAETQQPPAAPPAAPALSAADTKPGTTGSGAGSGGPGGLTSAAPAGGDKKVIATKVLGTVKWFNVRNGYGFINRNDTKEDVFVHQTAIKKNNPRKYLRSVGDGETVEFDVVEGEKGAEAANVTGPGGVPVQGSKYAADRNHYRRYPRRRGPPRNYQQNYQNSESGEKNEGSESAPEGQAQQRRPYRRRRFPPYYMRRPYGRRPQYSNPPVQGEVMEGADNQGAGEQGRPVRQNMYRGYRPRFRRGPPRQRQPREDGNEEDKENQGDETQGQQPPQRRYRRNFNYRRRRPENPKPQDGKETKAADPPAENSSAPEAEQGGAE

Molecular target: T1, TRIM31 (human (endogenous in HT-29 and DLD-1)) (UniProt Q9BZY9)
T1 sequence: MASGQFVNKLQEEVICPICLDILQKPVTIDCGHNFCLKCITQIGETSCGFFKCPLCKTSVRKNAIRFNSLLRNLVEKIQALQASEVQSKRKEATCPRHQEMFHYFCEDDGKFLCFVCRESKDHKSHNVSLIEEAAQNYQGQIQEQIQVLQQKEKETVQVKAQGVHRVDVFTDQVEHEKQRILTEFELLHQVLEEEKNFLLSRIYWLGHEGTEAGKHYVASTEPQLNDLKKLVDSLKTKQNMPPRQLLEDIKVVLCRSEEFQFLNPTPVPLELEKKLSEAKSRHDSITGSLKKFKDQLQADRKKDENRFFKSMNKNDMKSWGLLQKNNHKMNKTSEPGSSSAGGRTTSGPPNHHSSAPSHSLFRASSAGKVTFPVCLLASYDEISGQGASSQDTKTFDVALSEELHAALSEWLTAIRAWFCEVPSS
Test: affinity purification with mass spectrometry; IP with anti-TRIM31 antibody from HT-29 lysate (RIPA buffer, overnight at 4 °C, protein A + G agarose beads), LC-MS/MS of the immunoprecipitate

binding: binds
Substance: Y-box binding protein 1 (YBX1) (from UniProt P67809 1-324)
